Reference: PMC6286816
Results are given in words; binding and its absence hold for the method and conditions named. In cells and extracts the contact can be indirect. Some entries that bind do so weakly or less than the wild type.

Chains of the proteins cited; added tags and fusions are not shown.
UniProt Q2NL51: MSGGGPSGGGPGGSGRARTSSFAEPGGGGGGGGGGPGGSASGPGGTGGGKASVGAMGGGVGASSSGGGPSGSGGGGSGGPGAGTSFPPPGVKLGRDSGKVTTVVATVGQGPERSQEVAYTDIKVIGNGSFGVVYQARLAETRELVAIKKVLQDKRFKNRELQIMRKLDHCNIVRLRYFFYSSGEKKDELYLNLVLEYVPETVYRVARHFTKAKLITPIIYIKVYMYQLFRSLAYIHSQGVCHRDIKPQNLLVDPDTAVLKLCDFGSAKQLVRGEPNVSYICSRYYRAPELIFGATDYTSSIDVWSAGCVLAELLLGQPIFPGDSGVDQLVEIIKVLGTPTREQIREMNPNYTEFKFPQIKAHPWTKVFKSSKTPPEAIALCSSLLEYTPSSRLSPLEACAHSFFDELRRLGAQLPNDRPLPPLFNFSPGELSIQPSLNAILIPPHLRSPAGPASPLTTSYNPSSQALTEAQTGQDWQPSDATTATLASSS
UniProt Q8K1M6: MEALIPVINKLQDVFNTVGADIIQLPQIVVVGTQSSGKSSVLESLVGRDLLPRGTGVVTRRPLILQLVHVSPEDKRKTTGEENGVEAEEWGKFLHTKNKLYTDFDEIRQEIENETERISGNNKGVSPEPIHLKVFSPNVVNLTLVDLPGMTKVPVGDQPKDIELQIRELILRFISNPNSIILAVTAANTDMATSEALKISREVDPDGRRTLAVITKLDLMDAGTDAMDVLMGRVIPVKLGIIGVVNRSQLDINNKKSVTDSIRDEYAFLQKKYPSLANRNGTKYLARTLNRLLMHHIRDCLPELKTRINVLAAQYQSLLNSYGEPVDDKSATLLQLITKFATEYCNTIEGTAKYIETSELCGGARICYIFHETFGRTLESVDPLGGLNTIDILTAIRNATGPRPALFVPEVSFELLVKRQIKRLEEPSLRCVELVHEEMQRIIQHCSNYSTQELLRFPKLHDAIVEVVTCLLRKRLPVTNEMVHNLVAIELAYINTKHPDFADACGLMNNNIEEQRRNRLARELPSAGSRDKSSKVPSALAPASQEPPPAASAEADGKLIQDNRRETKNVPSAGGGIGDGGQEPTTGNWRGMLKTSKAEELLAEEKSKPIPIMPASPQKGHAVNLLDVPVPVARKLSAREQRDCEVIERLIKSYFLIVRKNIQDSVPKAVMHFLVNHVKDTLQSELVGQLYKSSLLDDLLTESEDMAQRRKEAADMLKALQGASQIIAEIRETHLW

Biological target: Glycogen synthase kinase-3α (mouse (endogenous in TM4)) (UniProt Q2NL51)
Test: co-IP; 500 μg total protein of TM4 cells (control, heat shock, SB216763), precleared with protein A/G plus beads, incubated with 4 μg GSK3α antibodies overnight at 4°C, agarose beads 2 h at 4°C; blot for Ser637-Drp1

dynamin related protein 1 phosphorylated at Ser637 (from UniProt Q8K1M6 1-736)
binding: binds
